# In the supplement of paper PMC7666118:
# By UniProt entry, the sequences of proteins in these tests, tags left out. Where a name states a change or a piece, a line headed by the entry shows the natural chain unless it says otherwise.
# UniProt Q9Y6C9: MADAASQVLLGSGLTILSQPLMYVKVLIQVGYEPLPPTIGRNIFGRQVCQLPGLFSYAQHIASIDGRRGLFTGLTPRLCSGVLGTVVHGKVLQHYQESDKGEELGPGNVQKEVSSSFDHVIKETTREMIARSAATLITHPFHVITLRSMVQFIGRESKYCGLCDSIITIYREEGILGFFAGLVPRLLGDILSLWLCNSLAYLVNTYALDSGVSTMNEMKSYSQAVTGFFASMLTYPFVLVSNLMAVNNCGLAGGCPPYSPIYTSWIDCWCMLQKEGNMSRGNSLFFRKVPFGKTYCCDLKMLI
# UniProt Q9UNW1: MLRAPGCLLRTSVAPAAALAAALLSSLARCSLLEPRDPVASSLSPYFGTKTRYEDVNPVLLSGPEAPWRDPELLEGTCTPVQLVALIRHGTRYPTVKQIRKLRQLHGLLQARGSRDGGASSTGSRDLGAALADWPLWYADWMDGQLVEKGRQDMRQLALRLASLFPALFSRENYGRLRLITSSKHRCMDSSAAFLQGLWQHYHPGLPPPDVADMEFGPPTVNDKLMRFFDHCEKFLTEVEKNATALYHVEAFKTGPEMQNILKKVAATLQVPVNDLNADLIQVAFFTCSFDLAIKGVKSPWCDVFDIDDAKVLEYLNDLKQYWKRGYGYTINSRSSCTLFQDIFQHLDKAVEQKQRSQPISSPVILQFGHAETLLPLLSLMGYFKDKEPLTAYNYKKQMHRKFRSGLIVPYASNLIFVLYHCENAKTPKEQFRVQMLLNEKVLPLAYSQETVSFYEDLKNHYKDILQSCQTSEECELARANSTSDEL
# UniProt Q13496: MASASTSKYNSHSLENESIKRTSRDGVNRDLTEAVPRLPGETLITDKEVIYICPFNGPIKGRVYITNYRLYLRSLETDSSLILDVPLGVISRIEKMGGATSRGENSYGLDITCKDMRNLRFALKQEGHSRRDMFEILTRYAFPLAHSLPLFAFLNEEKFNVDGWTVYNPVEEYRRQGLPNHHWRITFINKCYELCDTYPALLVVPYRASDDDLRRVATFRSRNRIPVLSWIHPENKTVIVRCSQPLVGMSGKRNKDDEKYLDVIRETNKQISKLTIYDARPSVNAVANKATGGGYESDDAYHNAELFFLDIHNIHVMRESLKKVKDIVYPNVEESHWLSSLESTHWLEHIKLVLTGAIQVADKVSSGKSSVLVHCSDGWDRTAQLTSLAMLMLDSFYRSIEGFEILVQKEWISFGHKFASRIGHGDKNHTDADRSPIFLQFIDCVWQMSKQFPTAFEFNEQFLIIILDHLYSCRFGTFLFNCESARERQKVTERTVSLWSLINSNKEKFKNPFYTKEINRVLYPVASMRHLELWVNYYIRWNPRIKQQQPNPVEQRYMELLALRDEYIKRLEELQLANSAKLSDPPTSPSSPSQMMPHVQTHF
# UniProt Q9Y2Z2: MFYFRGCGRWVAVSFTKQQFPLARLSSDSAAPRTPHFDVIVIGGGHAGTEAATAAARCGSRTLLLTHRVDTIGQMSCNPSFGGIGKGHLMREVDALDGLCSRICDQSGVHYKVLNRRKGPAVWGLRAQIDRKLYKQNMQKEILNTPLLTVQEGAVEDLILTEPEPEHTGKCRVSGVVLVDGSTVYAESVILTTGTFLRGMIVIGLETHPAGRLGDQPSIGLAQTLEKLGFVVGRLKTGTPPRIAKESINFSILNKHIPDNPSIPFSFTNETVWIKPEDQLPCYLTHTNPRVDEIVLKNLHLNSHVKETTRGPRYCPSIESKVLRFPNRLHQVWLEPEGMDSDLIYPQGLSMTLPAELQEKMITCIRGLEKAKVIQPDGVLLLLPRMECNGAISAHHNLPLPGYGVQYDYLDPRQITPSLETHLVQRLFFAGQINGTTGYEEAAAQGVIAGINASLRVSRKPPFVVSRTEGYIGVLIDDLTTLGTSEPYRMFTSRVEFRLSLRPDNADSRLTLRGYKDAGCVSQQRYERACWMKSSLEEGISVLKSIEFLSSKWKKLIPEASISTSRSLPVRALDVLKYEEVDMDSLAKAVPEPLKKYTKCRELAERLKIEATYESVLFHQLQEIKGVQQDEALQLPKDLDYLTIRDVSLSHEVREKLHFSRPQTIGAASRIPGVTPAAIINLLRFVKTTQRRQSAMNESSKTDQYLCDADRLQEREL
# UniProt Q10469: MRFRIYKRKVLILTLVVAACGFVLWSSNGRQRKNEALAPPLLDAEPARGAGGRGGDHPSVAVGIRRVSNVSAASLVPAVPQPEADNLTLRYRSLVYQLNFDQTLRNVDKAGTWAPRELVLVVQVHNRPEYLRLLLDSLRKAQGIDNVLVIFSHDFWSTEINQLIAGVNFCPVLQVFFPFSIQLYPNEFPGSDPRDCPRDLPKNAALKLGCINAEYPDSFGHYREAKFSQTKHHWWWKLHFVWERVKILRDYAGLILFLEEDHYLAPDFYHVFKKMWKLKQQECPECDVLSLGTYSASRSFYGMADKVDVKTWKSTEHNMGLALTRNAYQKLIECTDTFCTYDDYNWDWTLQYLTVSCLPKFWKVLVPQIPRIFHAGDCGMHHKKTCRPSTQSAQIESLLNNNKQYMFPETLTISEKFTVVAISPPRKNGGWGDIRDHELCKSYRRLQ
# UniProt Q9GZY8: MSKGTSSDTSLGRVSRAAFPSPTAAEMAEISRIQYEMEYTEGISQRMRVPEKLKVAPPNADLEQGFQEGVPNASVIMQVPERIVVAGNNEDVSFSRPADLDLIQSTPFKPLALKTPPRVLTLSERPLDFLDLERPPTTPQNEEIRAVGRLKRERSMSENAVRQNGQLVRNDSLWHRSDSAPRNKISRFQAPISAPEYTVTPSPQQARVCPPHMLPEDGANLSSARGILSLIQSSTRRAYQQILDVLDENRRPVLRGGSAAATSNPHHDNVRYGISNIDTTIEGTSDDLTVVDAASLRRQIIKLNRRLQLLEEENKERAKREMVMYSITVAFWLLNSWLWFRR
# UniProt P55196: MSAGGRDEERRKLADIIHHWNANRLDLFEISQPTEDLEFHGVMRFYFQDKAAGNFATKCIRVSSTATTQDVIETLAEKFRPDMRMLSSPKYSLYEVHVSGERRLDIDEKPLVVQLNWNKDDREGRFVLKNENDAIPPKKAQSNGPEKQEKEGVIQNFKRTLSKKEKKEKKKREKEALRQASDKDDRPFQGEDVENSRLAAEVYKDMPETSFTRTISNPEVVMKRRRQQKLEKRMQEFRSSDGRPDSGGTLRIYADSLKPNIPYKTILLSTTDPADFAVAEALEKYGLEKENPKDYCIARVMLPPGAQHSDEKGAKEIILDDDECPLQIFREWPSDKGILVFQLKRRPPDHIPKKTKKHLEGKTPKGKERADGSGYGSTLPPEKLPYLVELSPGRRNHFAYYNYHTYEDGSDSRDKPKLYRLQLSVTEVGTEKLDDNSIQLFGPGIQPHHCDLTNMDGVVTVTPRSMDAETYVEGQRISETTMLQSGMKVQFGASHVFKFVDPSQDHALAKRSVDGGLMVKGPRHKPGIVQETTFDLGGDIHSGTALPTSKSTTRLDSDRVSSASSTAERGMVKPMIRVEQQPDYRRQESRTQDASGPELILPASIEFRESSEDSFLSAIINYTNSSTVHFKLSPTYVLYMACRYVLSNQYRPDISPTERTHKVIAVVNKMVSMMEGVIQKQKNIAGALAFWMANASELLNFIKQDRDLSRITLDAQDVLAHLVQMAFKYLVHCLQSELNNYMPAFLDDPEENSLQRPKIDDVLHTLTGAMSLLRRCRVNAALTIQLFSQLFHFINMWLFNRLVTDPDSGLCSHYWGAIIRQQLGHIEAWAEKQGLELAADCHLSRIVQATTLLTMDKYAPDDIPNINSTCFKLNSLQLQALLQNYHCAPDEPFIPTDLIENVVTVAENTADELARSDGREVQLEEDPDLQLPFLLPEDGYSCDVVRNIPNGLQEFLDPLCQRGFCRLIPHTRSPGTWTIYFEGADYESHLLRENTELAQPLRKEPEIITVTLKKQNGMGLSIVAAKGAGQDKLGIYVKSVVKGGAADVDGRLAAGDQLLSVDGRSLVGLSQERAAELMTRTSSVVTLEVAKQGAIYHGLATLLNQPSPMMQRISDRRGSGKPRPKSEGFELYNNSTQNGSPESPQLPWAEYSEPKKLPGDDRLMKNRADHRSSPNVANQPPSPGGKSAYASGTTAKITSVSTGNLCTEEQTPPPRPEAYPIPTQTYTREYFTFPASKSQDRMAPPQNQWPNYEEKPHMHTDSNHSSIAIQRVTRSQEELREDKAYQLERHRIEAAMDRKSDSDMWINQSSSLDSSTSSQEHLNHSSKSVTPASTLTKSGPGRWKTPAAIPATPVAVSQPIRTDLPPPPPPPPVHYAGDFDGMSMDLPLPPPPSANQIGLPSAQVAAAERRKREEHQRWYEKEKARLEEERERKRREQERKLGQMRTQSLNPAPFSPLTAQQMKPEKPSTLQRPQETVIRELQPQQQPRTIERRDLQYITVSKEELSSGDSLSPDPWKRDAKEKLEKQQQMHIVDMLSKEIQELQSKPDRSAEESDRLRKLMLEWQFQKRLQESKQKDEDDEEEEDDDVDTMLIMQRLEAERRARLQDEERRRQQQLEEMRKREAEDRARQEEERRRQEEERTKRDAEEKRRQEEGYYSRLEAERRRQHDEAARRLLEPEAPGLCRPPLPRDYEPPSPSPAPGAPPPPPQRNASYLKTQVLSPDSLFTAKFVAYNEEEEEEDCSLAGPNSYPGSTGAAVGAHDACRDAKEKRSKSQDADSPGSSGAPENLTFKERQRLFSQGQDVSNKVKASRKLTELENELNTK
# UniProt Q9UQ53: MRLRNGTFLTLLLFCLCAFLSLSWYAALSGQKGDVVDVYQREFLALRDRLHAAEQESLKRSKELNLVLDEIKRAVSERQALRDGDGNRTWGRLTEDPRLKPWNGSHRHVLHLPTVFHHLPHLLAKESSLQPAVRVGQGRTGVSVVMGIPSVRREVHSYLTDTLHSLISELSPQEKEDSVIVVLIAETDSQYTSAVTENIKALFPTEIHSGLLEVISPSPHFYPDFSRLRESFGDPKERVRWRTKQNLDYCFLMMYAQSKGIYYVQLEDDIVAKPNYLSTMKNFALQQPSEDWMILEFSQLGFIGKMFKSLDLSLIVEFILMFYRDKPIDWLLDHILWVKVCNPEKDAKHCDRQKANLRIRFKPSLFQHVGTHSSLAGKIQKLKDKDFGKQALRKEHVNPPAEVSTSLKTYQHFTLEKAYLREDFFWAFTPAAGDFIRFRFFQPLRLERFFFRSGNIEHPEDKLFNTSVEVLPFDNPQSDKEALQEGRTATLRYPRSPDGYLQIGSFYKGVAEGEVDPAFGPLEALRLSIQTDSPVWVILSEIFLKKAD
# UniProt Q99797: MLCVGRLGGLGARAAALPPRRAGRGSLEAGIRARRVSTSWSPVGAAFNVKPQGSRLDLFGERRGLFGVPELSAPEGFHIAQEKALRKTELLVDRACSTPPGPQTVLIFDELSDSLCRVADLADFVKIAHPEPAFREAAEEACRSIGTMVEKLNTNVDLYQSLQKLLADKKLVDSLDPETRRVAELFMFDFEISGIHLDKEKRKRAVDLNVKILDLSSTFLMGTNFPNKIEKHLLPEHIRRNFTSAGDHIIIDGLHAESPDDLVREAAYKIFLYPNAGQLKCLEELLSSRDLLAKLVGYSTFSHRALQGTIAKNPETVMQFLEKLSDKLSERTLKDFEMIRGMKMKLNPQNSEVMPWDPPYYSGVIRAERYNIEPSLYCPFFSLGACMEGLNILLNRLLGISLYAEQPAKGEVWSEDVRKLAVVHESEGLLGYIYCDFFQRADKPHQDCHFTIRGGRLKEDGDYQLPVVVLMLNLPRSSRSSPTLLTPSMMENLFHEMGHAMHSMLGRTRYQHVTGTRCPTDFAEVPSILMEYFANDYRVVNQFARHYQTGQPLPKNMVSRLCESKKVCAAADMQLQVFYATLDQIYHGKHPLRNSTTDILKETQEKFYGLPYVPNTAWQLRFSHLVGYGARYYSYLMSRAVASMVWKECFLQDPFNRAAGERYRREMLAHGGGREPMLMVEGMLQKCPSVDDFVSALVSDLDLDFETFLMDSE
# UniProt Q15773: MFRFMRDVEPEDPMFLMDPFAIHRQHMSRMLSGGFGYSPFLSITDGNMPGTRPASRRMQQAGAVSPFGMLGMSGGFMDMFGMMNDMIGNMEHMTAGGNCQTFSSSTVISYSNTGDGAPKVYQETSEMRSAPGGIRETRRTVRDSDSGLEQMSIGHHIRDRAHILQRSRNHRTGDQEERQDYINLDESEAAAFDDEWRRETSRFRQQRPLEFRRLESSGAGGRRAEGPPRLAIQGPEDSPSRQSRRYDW
# UniProt P51948: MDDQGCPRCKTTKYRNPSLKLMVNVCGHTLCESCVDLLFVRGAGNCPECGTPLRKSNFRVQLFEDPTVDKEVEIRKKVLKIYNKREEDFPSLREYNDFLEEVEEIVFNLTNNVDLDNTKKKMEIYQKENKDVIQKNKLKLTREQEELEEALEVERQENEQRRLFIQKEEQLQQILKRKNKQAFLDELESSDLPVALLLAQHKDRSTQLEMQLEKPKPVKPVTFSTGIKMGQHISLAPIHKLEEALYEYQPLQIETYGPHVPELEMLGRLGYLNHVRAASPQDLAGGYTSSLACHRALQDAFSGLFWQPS
# This is one part of the list.
# Compound: COc1ccc(Cn2ccc3cc(C)c(C(=O)NO)cc32)cc1
# Experiment: dose-dependent thermal stabilisation call (2D-TPP, DLPTP, 10% FDR) (binary (1 = stabilised)); higher = stabilised by the compound
# Details: system: HL-60 intact cells; concentration range 0.04-10 µM
# Protocol: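 2D thermal proteome profiling in intact HL-60 cells treated with BRD-3811 (0, 0.04, 0.29, 2, 10 uM) for 90 min at 37 C, then heated 3 min at one of 12 temperatures (42-63.9 C). Soluble protein was quantified by TMT10 MS. The value is the DLPTP call of the paper: dose-dependent thermal stabilisation over all temperatures at 10% FDR (F-test of a dose-response against a flat model); one experiment, one call per tested protein.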
row,Target,dose-dependent thermal stabilisation call
1,MTCH2 (UniProt Q9Y6C9),inactive: 0
2,MPP6,inactive: 0
3,MRPS33 (UniProt Q9Y291),inactive: 0
4,MRPL28 (UniProt Q13084),inactive: 0
5,MPO (UniProt P05164),inactive: 0
6,MTFMT (UniProt Q96DP5),inactive: 0
7,MINPP1 (UniProt Q9UNW1),inactive: 0
8,MTM1 (UniProt Q13496),inactive: 0
9,MTO1 (UniProt Q9Y2Z2),inactive: 0
10,MRPS12 (UniProt O15235),inactive: 0
11,MRPS35 (UniProt P82673),inactive: 0
12,MGAT2 (UniProt Q10469),inactive: 0
13,MRPS36 (UniProt P82909),inactive: 0
14,MTMR9 (UniProt Q96QG7),inactive: 0
15,MRPS10 (UniProt P82664),inactive: 0
16,MFF (UniProt Q9GZY8),inactive: 0
17,MLLT4 (UniProt P55196),inactive: 0
18,MGAT4B (UniProt Q9UQ53),inactive: 0
19,MON1A (UniProt Q86VX9),inactive: 0
20,MRPL42 (UniProt Q9Y6G3),inactive: 0

row,Target,dose-dependent thermal stabilisation call
1,MRPS27 (UniProt Q92552),inactive: 0
2,METT5D1 (UniProt A6NJ78),inactive: 0
3,MGC52424,inactive: 0
4,NACA,inactive: 0
5,MED23 (UniProt Q9ULK4),inactive: 0
6,MT2A (UniProt P02795),inactive: 0
7,MRPL45 (UniProt Q9BRJ2),inactive: 0
8,MIPEP (UniProt Q99797),inactive: 0
9,MRE11A (UniProt P49959),inactive: 0
10,MNDA (UniProt P41218),inactive: 0
11,MUDENG (UniProt Q9H0R1),inactive: 0
12,MUL1 (UniProt Q969V5),inactive: 0
13,MPST (UniProt P25325),inactive: 0
14,MRPS18A (UniProt Q9NVS2),inactive: 0
15,MSRB3 (UniProt Q8IXL7),inactive: 0
16,MRM1 (UniProt Q6IN84),inactive: 0
17,MRPS26 (UniProt Q9BYN8),inactive: 0
18,MLF2 (UniProt Q15773),inactive: 0
19,MNAT1 (UniProt P51948),inactive: 0
20,MRPS7 (UniProt Q9Y2R9),inactive: 0

# Laid out differently: entries from further up
row	Target	dose-dependent thermal stabilisation call
2	METT5D1 (UniProt A6NJ78)	inactive: 0
3	MGC52424	inactive: 0
